Among the data in PubChem BioAssay AID1347421 (Sanford-Burnham Center for Chemical Genomics, 2020) are activity values, retold here.

Sequences of proteins named here, by UniProt entry; tags and fusion partners are left off. A change or cut given only in a name is not applied to a line headed by its entry.
UniProt O00391: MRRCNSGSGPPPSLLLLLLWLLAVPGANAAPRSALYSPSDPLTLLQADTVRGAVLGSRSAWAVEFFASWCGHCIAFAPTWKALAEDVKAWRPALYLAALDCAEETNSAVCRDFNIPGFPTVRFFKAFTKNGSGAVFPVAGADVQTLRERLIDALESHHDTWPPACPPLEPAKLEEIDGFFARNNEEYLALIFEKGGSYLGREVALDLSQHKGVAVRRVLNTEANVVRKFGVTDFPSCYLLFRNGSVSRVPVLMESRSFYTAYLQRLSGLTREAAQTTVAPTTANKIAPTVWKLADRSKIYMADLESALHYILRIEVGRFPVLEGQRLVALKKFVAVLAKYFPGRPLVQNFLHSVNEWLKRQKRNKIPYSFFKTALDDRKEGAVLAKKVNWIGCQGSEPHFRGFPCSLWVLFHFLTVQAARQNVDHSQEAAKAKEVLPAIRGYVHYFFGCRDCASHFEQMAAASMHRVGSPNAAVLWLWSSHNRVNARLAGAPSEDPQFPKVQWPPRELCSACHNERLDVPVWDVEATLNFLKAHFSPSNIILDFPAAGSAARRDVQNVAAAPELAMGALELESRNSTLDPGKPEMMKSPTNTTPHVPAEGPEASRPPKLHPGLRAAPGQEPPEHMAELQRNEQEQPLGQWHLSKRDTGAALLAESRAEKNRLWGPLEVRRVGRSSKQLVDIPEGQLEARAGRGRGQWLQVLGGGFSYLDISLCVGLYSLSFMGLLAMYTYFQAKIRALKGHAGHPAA

In all, about 1,500 compounds were measured (“activity”: median about 2, lowest 2% from about -18 on). The list shows a part of the results. Calls of active or inactive are those of the source.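 The calls were made as follows: active = inhibition of at least 40% at 10 µM; inconclusive = no clear call, values can overlap the other calls; inactive = the rest.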

For this test, the target named is Sulfhydryl oxidase 1 (Homo sapiens) (UniProt O00391). In words: QSOX1 enzyme inhibitors, confirmation, biochemical, ROS-Glo luminescence, single concentration (AID 1347421).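 Also: 0% = DMSO wells with enzyme and 100% = wells lacking QSOX1 enzyme.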 As to conditions: recombinant hQSOX1, RNase A substrate, ROS-Glo H2O2 luminescence; at 10 µM.
Consider `CSc1ncc(CN2CCCC(CO)(CCOc3ccccc3)C2)cn1` (stereo not drawn), for which the activity was found to be 10.5%. As to `OC(COc1ccccc1CN1CCSCC1)CN1CCc2ccccc2C1` (stereo not drawn), the activity was found to be 8.9%. The figure for `CCOC(=O)CCNC(=O)N1CCOC(Cc2cccc(OC)c2)C1` (stereo not drawn) is 2.5%. In the case of `CSCCC(=O)N1CCc2[nH]nc(-c3ccc4c(c3)OCO4)c2C1`, the activity was inactive: -4.4%.

On to `O=C1NCCN(CC(c2ccccc2)c2ccccc2)C1CC(=O)N1CCCCC1` (stereo not drawn), for which the activity is 7.3%. Consider `Cn1c(CCC2CCCCC2)nnc1SCC(N)=O`, for which the activity is 6.4%.

As for `COc1ccc(Cl)cc1Nc1nc(N)nc(CN2CCN(c3ccccc3)CC2)n1`, the activity stood at 2.1%. In the case of `COc1cccc(CC2CN(C(=O)Cc3ccn(C)c3)CCO2)c1` (stereo not drawn), the activity is inactive: -1.3%. Next, `O=C(CCN1CCCO1)N1CCCC(N2CCN(c3cccc(C(F)(F)F)c3)CC2)C1` (stereo not drawn): inactive: -0.1%; `COc1ccccc1CCN1CCC(CN(C)C(=O)c2cn3ccccc3n2)CC1`: 0.1%.

As for `CCC(CO)NCc1c(F)cccc1Cl` (stereo not drawn), the activity was determined as 4.2%. Turning to `Cn1nc(C(=O)N2CCc3ccccc32)c2ccccc2c1=O`, the activity is inactive: -5.3%. The figure for `Cc1oc(-c2cccs2)nc1CN(C)CC1COc2ccccc2O1` (stereo not drawn) is inactive: -0.6%; for `Cc1ccc2c(c1)N(CC(=O)NC1CCCCC1)C(=O)CO2` it is inactive: -9.8%. The figure for `O=C(Nc1cccnc1)c1cccc(S(=O)(=O)N2CCCC2)c1` is inactive: -9.8%.

Consider `O=C(NC1CC(=O)N(CCCc2ccccc2)C1)C(=O)c1ccco1` (stereo not drawn), for which the activity turned out to be 7.7%. For `CN1CCN(CC(O)COc2ccc(CNCc3ccccc3Cl)cc2)CC1` (stereo not drawn), the activity is 5.5%.

For the compound `CN(Cc1ccccc1)C(=O)CCC1CCN(C(=O)C2COc3ccccc3O2)CC1` (stereo not drawn), the activity is 6.6%.

Take `CN(C)CCNC(=O)CCC1CCN(Cc2cc3ccccc3s2)CC1`: the activity was 4.2%.

Take `CC(Oc1ccccc1)C(=O)N1CCc2onc(-c3ccc(F)c(F)c3)c2C1` (stereo not drawn): the activity was 10.1%. Consider `Cc1nn(C)c(C)c1-c1cnc(C2CC(=O)N(CC(C)C)C2)[nH]1` (stereo not drawn), for which the activity is 5.6%. Next, `COCCN(CC1CC1)CC1CCN(Cc2ccccc2F)CC1`: inactive: -0.9%. For `Cc1ccc(Nc2nnc(C)s2)c(C)c1`, the activity was found to be 3.7%. Next, `CCN(CC)CC(=O)N1CCOC(Cc2ccccc2Cl)C1` (stereo not drawn): 2.5%; `CN(Cc1csc(-c2cccs2)n1)CC1(O)CCCN(C)C1=O` (stereo not drawn): 4.1%. Regarding `O=c1cc(O)nc(SCc2ccc(F)cc2)[nH]1`, the activity is inactive: -4.8%.

In the case of `Cc1cc(CNCc2cccc(OCC(O)CN3CCCCCC3)c2)on1` (stereo not drawn), the activity was inactive: -2.7%. As for `O=C(C1CCN(c2ccccc2)C1=O)N1CCN(Cc2ccccc2)CC1` (stereo not drawn), the activity was inactive: -2.5%.

As to `Cc1cccc(N2CCN(C(=O)CC3C(=O)NCCN3Cc3ccccc3F)CC2)n1` (stereo not drawn), the activity turned out to be 6.9%. Next, `O=C1CCCCN1CCC(=O)N1CCOC(CCc2ccccc2)C1` (stereo not drawn): 5%; `CCn1ncc(CN2CCCC(Nc3ccc4c(c3)OCO4)C2)c1C` (stereo not drawn): 3.3%; `COc1cc(CNCCc2ccncc2)ccc1OCC(O)CN(C)C(C)C` (stereo not drawn): 6.3%.

For the compound `COc1cc(CNCc2cccc(C)c2)ccc1OCC(O)CN1CCC(O)CC1` (stereo not drawn), the activity was 1.6%. With `O=C(CC1C(=O)NCCN1Cc1ccccc1)NCCCn1cccn1` (stereo not drawn), the activity was inactive: -5.4%.

For the compound `Cc1ccsc1CNc1ccc(Cl)c(C(=O)O)c1`, the activity was inactive: -10.6%. As to `Cc1cccc(CN(C)C(=O)c2cc(-c3cn[nH]c3)nc3ccc(F)cc23)n1`, the activity is inactive: -0.8%. Consider `CC(=O)c1cccc(CN2CCc3[nH]nc(-c4cccc(F)c4)c3C2)c1`, for which the activity amounted to 0.5%.

In the case of `Cn1nccc1C(=O)Nc1cccc(F)c1`, the activity was inactive: -13.4%. Take `O=C(C1CCCO1)N1CCc2[nH]nc(-c3ccc(C(F)(F)F)cc3)c2C1` (stereo not drawn): the activity is inactive: -2.9%. For `COc1ccc(CCN(C)C2CCCN(C(=O)c3cc[n+]([O-])cc3)C2)cc1OC` (stereo not drawn), the activity was inactive: -5%. For the compound `O=C(Nc1ccccc1C(=O)N1CCCC1)C1CCCCC1`, the activity was inactive: -3.9%. With `O=C(c1cc(S(=O)(=O)N2CCOCC2)c(Cl)cc1Cl)N1CCSCC1`, the activity was inactive: -18.4%. Take `COCc1ccc(C(=O)N2CCC(CCC(=O)NCc3cccnc3)CC2)o1`: the activity turned out to be 4.1%. On to `CN(C(=O)CCN1CCCCC1=O)C1CCCN(CCCc2ccccc2)C1` (stereo not drawn), for which the activity came to 1%. For the compound `Cc1ccc(-c2n[nH]c3c2CN(C(=O)Cc2ccc4c(c2)NC(=O)CO4)CC3)cc1`, the activity is inactive: -5.4%. With `Cc1[nH]n2c(=O)c3c(nc2c1-c1ccc(F)cc1)CCC3`, the activity was inactive: -16.9%.

As for `CN(Cc1ccc2nsnc2c1)C(=O)c1cn(Cc2ccc(F)cc2Cl)nn1`, the activity turned out to be 2%. Consider `Fc1ccccc1-c1noc2c1CN(Cc1ccc3c(c1)OCCO3)CC2`, for which the activity was inactive: -4.5%.

For the compound `COc1cc(OC)c(CN2CCN(C3CCCCC3)C(CCO)C2)c(OC)c1` (stereo not drawn), the activity was found to be 0.7%. As for `OCCOc1ccc(CN2CCCC(N3CCc4ccccc4C3)C2)cc1` (stereo not drawn), the activity worked out at 2.6%. `COCc1ccc(CN2CC[C@@H](N(C)CCc3ccccn3)[C@H](O)C2)o1`: the activity was 0.7%. The figure for `CCC(=O)Oc1ccc(/C=C/c2ccc3ccccc3n2)cc1` is active: 71.1%.

Turning to `Cc1ccoc1C(=O)N1CCCC(CCC(=O)N2CCN(c3ccccn3)CC2)C1` (stereo not drawn), the activity was found to be 3.7%. For `CCN(Cc1ccncc1)Cc1cc(OC)ccc1OCC(O)CN1CCC(O)CC1` (stereo not drawn), the activity amounted to 2.6%. The figure for `COc1cc(CNCCN2CCNC2=O)ccc1OCC(O)CN1CCSCC1` (stereo not drawn) is 2.8%. In the case of `CC(C)n1nccc1NC(=O)Cn1ccc(-c2ccccc2)n1`, the activity amounted to 3.1%. Regarding `COc1ccc(-c2nc(CN3CCCCC3c3nccs3)c(C)o2)c(OC)c1` (stereo not drawn), the activity is inactive: -0.4%.

Regarding `Cn1ncc(N2CCC(CNC(=O)NC3CCCC3)C2)cc1=O` (stereo not drawn), the activity was inactive: -4.8%. `O=C(c1ccc2c(c1)OCO2)C1CCCN(Cc2cccn2-c2ccccn2)C1` (stereo not drawn): the activity was 7.3%. With `O=C(/C=C/c1cccnc1)N1CCCC(N2CCN(c3ccc(F)cc3)CC2)C1` (stereo not drawn), the activity worked out at 1%. Take `Nc1nc(/C=C/c2ccccc2Cl)nc(-c2ccccc2O)n1`: the activity was 1.5%. As for `Cc1ccc(S(=O)(=O)NC2CCCCC2)cc1C(N)=O`, the activity was inactive: -20.3%. Next, `N#Cc1nccnc1N1CCN(CC2(c3ccc(F)cc3)CCOC2)CC1` (stereo not drawn): 2.3%; `CC1CCN(Cc2nnnn2CCCC(=O)NC(C)c2nccs2)CC1` (stereo not drawn): 6%; `O=C1CN(c2nc3nonc3nc2NC2CCCC2)CCN1C1CCCC1`: inactive: -1.2%. For the compound `Cc1ccc(CN2CCN(Cc3ccc(C)o3)CC2CCO)cc1` (stereo not drawn), the activity was inactive: -5%. Next, `OC1CCN([C@@H]2CCN(Cc3ccc(OCc4ccccc4)cc3)C[C@H]2O)CC1`: inactive: -1%; `COc1ccc(-c2noc(CN(Cc3c(C)nn(C)c3C)C(C)C)n2)c(OC)c1OC`: 3.3%. Take `CC(C)CCCC1CN(C2CCN(Cc3ccccn3)CC2)CCO1` (stereo not drawn): the activity is 5.9%. `CCOC(=O)c1cnc(SCC(=O)N2CCCC2)nc1N`: the activity is inactive: -16.3%. Take `[C+](=CCNCC1CCCO1)c1ccccc1` (stereo not drawn): the activity was 4.1%.

`C=CCNC(=O)CCc1ccc(S(=O)(=O)NC)cc1`: the activity is inactive: -11.4%. Turning to `OCCOc1cccc(CN2CCN(CCc3ccccc3)C(CCO)C2)c1` (stereo not drawn), the activity was 3.4%.

On to `CCCc1nnc(SCC(=O)NC2CC3CCC2C3)o1` (stereo not drawn), for which the activity is inactive: -4.5%.

In the case of `CN(C)S(=O)(=O)c1cccc(S(C)(=O)=O)c1`, the activity worked out at 8.2%. Turning to `CCCN1CCC(CCC(=O)NC2CC2)CC1`, the activity turned out to be 14.1%. Consider `Cc1nc(-c2ccc(CN3CCC(CCn4cccn4)CC3)cc2)[nH]c(=O)c1F`, for which the activity came to 7.1%. For the compound `Cc1nc2sccn2c1C(=O)N1CCCC(N(C)Cc2ccccc2)C1` (stereo not drawn), the activity was inactive: -0.3%. Next, `CCOC(=O)CNC(=O)N1CCCC(N2CCN(c3ccccc3)CC2)C1` (stereo not drawn): 1.6%; `c1ccc(CCCC2CN(Cc3ccncc3)CCO2)cc1` (stereo not drawn): 3.2%.

Regarding `CCC(C)c1n[nH]c2c1CN(C(=O)c1scc3c1OCCO3)CC2` (stereo not drawn), the activity amounted to 6.3%.

As for `CN1CCN(S(=O)(=O)c2ccc3c(c2)CC(=O)N3C)CC1`, the activity worked out at 6.2%. On to `O=C(NCCc1cccnc1)Nc1nnc(-c2ccc(F)cc2)s1`, for which the activity was inactive: -5.8%. Next, `CC1=C(C(=O)NCc2cccnc2Oc2ccccc2C)OCCO1`: inactive: -0.4%; `O=c1c2ccccc2cnn1Cc1ccon1`: 2.9%. The figure for `CC(C)N(C)Cc1nnnn1CC(=O)NCCc1cn2ccsc2n1` is 1.5%; for `CCn1c(SCC(=O)N2CCCCCC2)nc2ccccc21` it is inactive: -11.6%; for `O=C(CCCn1nnnc1CN1CCOCC1)NC(c1ccccn1)C(F)(F)F` (stereo not drawn) it is 9.7%. Next, `O=C(c1csnn1)N1CCOC(CCCc2ccccc2)C1` (stereo not drawn): 4.3%; `O=C(CCC1CCN(C2CCSCC2)CC1)NCC1CCCO1` (stereo not drawn): 0.9%; `COc1ccc(-n2cc(CN(C)CC3COCCO3)c(-c3cccc(F)c3)n2)cc1` (stereo not drawn): 1.7%.

In the case of `COc1ccc(NC(=S)NCCCn2ccnc2)cc1`, the activity is inactive: -2.9%.

As to `O=C(Cn1ncn2cccc2c1=O)N1CCC(CCn2cccn2)CC1`, the activity turned out to be 2.6%. For `COC(=O)c1ccc(N2CCOC(Cc3cccc(OC)c3)C2)nc1` (stereo not drawn), the activity came to 15.4%. In the case of `O=C(Cn1ncc2ccccc2c1=O)N1CCCC(CN2CCOCC2)C1` (stereo not drawn), the activity came out at 3.5%. Next, `c1csc(C2=N[N+](=C3CCNCC3)N=N2)c1`: inactive: -16.6%; `COc1cc(/C=N/O)ccc1OCc1cccc(C(=O)O)c1`: active: 99.4%.

On to `COC(=O)c1ccc(N2CCOCC2)c(NC(=O)c2cccs2)c1`, for which the activity turned out to be 3.5%. As for `O=C(CCC1CCCN(C/C=C/c2ccc(F)cc2)C1)N1CCCC1` (stereo not drawn), the activity is inactive: -1.2%. With `O=C(CCC1CCN(C(=O)CCOc2ccccc2)CC1)NCc1cccnc1`, the activity was determined as 4.8%. Consider `COc1cc(CN2CCC(CCC(=O)N3CCOCC3)CC2)cc(Cl)c1OC`, for which the activity is inactive: -5.6%. Consider `COC(C)(C)CNCc1ccccc1OCC(O)CN1CCCCC1` (stereo not drawn), for which the activity turned out to be 1.9%. As for `O=C(c1ccc2c3c(cccc13)CC2)C1CCCN(C(=O)CCN2CCCO2)C1` (stereo not drawn), the activity is inactive: -1.8%. Take `Cc1oc(-c2ccccc2Cl)nc1CN(Cc1cnn(C)c1)C(C)C`: the activity came to 5.9%. Next, `Cc1nc(CN(C)C(=O)c2cn(Cc3ccccc3F)nn2)cs1`: active: 43.2%; `O=C(c1ccoc1)N1CCC(C2CCN(Cc3cccnc3)CC2)C1` (stereo not drawn): 3.8%. Regarding `Cc1oc(-c2ccc(-c3ccccc3)cc2)nc1CN1CCOCC1`, the activity worked out at 7.3%.

As to `CC(C)NC(=O)C1CCN(C2CCN(C3CCSCC3)CC2)CC1`, the activity turned out to be 0.2%.
